# Primary screen of a compound library

Chains of the proteins cited; added tags and fusions are not shown. Residues count along the entry.
UniProt A4I591, 1-473: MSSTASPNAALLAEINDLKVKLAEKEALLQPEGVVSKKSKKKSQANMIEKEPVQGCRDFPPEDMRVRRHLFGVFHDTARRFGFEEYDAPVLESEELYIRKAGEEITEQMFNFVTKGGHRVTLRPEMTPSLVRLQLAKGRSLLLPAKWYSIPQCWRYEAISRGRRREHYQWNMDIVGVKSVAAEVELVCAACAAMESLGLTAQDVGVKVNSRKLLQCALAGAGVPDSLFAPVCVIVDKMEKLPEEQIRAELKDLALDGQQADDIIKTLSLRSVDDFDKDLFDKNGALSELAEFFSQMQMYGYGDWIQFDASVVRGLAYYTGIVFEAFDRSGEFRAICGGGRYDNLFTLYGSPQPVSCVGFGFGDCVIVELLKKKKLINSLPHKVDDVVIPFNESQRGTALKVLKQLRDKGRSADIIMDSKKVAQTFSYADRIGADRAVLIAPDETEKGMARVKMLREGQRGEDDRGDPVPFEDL
UniProt P9WNZ1, whole entry: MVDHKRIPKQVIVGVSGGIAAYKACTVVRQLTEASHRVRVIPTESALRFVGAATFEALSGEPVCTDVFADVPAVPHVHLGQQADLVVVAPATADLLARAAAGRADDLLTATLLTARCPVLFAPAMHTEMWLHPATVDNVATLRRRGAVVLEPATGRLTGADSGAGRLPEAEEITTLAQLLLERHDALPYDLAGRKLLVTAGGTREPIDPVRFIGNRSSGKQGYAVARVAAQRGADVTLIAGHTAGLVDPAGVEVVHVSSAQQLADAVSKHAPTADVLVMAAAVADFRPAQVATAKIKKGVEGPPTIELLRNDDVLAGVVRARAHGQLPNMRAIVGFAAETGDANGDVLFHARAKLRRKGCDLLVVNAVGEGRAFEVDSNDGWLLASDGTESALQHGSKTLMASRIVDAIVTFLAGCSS
UniProt P9WFT3, whole entry: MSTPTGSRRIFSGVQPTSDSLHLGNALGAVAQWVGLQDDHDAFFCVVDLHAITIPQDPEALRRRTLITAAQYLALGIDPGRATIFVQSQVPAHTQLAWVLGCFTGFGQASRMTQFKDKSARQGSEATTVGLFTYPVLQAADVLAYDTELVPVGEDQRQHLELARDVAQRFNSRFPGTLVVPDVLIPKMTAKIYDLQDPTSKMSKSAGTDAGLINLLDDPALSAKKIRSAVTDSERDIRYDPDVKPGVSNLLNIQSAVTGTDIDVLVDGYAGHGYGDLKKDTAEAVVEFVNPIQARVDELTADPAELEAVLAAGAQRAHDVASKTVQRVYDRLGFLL

LiHisRS: 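Enzyme assay of histidyl-tRNA synthetase; the read-out is not stated. Target: Histidine-tRNA ligase, Leishmania infantum (UniProt A4I591). Tested at 30 µM. The record gives no direction; compounds that gave an IC50 in retests scored well above the rest, so higher reads as stronger inhibition. The assay is labelled LdHisRS but filed under L. infantum. Of about 69,000 compounds tested this way, about 410 (0.6%) reached 50% or more in at least one test.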
CoaBC: 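Enzyme assay of CoaBC with a phosphate dye (Biomol Green) read at 650 nm. Target: Coenzyme A biosynthesis protein CoaBC, Mycobacterium tuberculosis (UniProt P9WNZ1). Concentration: 30 µM. Higher reads as stronger inhibition, judged from the few compounds that gave an IC50. Most strong results did not repeat in a second test. About 67,000 compounds were tested under these conditions; 0.06% (about 40) showed 50% or more at least once.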
MtTrpRS: 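Tryptophan-tRNA ligase, Mycobacterium tuberculosis (UniProt P9WFT3). Enzyme assay of tryptophanyl-tRNA synthetase; the read-out is not stated. Tested at 10 µM. Higher most likely means stronger inhibition; the record gives no direction and few retests gave an IC50. Of about 65,000 compounds tested this way, about 64 (0.098%) reached 50% or more in at least one test.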

Results are given as percent effect.
The controls that fix the scale are not given in the record; negative values are as filed.
This is an unselected part of the compounds tested.

* Cc1oc2c(c1C(=O)N1CC[C@H](O)[C@]3(CCCO3)C1)CCCC2 : LiHisRS: 14.49%; CoaBC: 3.679%; MtTrpRS: -8.569%
* Cn1nc(CC(C)(C)C)cc1NC(=O)c1ccc(CNC(N)=O)cc1 : LiHisRS: 10%; CoaBC: 0.2439%; MtTrpRS: -0.5093%
* CO[C@H]1CCN(C(=O)Cc2ccccn2)[C@H]1Cc1ccncc1 : LiHisRS: 13.87%; CoaBC: 16.32%; MtTrpRS: 0.7048%
* Cc1cnn(CC2CN(Cc3nc(-c4ccco4)no3)CCO2)c1 (centres undefined) : LiHisRS: -44.74%; CoaBC: 5.937%; MtTrpRS: -0.2825%
* c1cc(CN2CCC(c3ccnc4nccn34)C2)ccn1 (centres undefined) : LiHisRS: 10.07%; CoaBC: 11.48%; MtTrpRS: -1.953%
* CCCn1nc(C)c(C(=O)N(C)[C@@H]2CC[C@@H](OC)[C@@H]2O)c1C : LiHisRS: 14.49%; CoaBC: -0.2628%; MtTrpRS: -6.082%
* c1coc(-c2noc(CN3CC(n4cccn4)C3)n2)c1 : LiHisRS: 8%; CoaBC: 10%; MtTrpRS: 0.3909%
* COc1ccc(C(=O)N2C[C@@H](C(=O)O)[C@H](c3ccccc3)C2)c(O)c1 : LiHisRS: 13.11%; CoaBC: 1.717%; MtTrpRS: 1.319%
* CS(=O)(=O)NC1CCN(CCOCc2ccccc2)CC1 : LiHisRS: 19.35%; CoaBC: 9.069%; MtTrpRS: -0.7346%
* CCN(CC(=O)N(C)C)C(=O)c1ccc(-c2nc(C)cs2)cc1 : LiHisRS: 1.176%; CoaBC: 2.589%; MtTrpRS: -6.359%
* Cc1ccc(CN2C[C@@H]3CCCO[C@@H]3[C@H](N(C)Cc3ccco3)C2)s1 : LiHisRS: 7.273%; CoaBC: 0.8403%; MtTrpRS: -3.313%
* c1cc(OCc2ccc3c(c2)OCO3)ccc1CNC1CC1 : LiHisRS: 8.571%; CoaBC: 1.754%; MtTrpRS: -33.58%
* CC(=O)N1CCC(C(=O)N2CCCC(Cc3ccccn3)C2)CC1 (centres undefined) : LiHisRS: 17.89%; CoaBC: 6.083%; MtTrpRS: -2.029%
* Cc1ccc(OCC2CCCN(Cc3ccc(CO)o3)C2)cc1 (centres undefined) : LiHisRS: 7.143%; CoaBC: -0.7371%; MtTrpRS: -1.867%
* Cc1cc(NC(=O)N(C)CCN2CCN(c3ccccc3)CC2)on1 : LiHisRS: 17.81%; CoaBC: 0.3205%; MtTrpRS: -3.439%
* O=C(O)c1cc2c(nc1NCC1CC1)CCN(C1CCOC1)CC2 (centres undefined) : LiHisRS: 2.655%; CoaBC: 5.263%; MtTrpRS: 3.586%
* Cc1nc(CN2CCCC(N(C)CCc3cccs3)C2)no1 (centres undefined) : LiHisRS: 10.58%; CoaBC: 1.266%; MtTrpRS: 3.791%
* Cc1cc(S(=O)(=O)N2CCCc3cc(Cl)ccc32)sc1C(=O)O : LiHisRS: -22.32%; CoaBC: -20.66%; MtTrpRS: 6.155%

Some entries from above, unchanged:

SMILES	LiHisRS	CoaBC	MtTrpRS
CS(=O)(=O)NC1CCN(CCOCc2ccccc2)CC1	19.35%	9.069%	-0.7346%
CCN(CC(=O)N(C)C)C(=O)c1ccc(-c2nc(C)cs2)cc1	1.176%	2.589%	-6.359%

Source: ChEMBL document CHEMBL3988442, “University of Dundee, Small-Polar-MMV Screening Library” (2021).